Laboratory results published in publication PMC8618245, “Mechanisms of CP190 Interaction with Architectural Proteins in Drosophila Melanogaster” (International Journal of Molecular Sciences, 2021).
These are yes or no findings as the source states them, for the method shown. For some assays here: Binding calls can cover weak binding; strength is not graded here. Tags and fused reporters may be left off the sequences shown. For some assays here: In cells and extracts the contact can be indirect.

How the values were obtained:
[1] = target: CP190 BTB domain fused to the GAL4 DNA-binding domain (Drosophila melanogaster); experiment: two-hybrid; C2H2 proteins or their fragments fused to the GAL4 activation domain (pGAD424), CP190 BTB, D or M domain or full-length CP190 fused to the GAL4 DNA-binding domain (pGBT9); yeast strain pJ69-4A; growth on media without tryptophan, leucine, histidine and adenine compared after 2–3 days, 30 °C; includes the screen of a library of 154 C2H2 proteins
[2] = target: GST-fused CG31365 324–455 (Drosophila melanogaster); experiment: pull-down; GST pull-down from lysate of BL21 cells co-expressing the GST-fused C2H2 fragment and 6×His-Thioredoxin-fused CP190 1–126; glutathione agarose, buffer C (20 mM Tris pH 7.5, 150 mM NaCl, 10 mM MgCl2, 0.1 mM ZnCl2, 0.1% NP40, 10% glycerol, 1 mM DTT), +4 °C, washes with 500 mM NaCl
[3] = target: GST-fused CG4730 1–133 (Drosophila melanogaster); experiment: as above
[4] = target: CP190 BTB domain F15A fused to the GAL4 DNA-binding domain (Drosophila melanogaster); experiment: two-hybrid; C2H2 proteins or their fragments fused to the GAL4 activation domain (pGAD424), CP190 BTB, D or M domain or full-length CP190 fused to the GAL4 DNA-binding domain (pGBT9); yeast strain pJ69-4A; growth on media without tryptophan, leucine, histidine and adenine compared after 2–3 days, 30 °C; includes the screen of a library of 154 C2H2 proteins
[5] = target: CP190 BTB domain K117S fused to the GAL4 DNA-binding domain (Drosophila melanogaster); experiment: as above
[6] = target: CP190 BTB domain K19A fused to the GAL4 DNA-binding domain (Drosophila melanogaster); experiment: as above
[7] = target: CP190 BTB domain L118A fused to the GAL4 DNA-binding domain (Drosophila melanogaster); experiment: as above
[8] = target: CP190 BTB domain V114A fused to the GAL4 DNA-binding domain (Drosophila melanogaster); experiment: as above
[9] = target: CP190 BTB domain V114N fused to the GAL4 DNA-binding domain (Drosophila melanogaster); experiment: as above
[10] = target: CP190 BTB domain V7A fused to the GAL4 DNA-binding domain (Drosophila melanogaster); experiment: as above

B1: Su(Hw) fused to the GAL4 activation domain (protein, UniProt P08970 1-941)
chain: MSASKEGKEKKGKLLGVENISPPKDKRPATRMKLLNDVGAGEDSEASTTTTTSRTPSNKQEKRGSVAGSRIKILNEEILGTPKTEKRGATKSTAPAASTVKILNEKKTPSATVTAVETTKIKTSPSKRKKMEHYVLQAVKSENTKADTTVTVVTEEDDTIDFILADDEEVVPGRIENNNGQEIVVTEDDEDLGEDGDEDGEDSSGKGNSSQTKIKEIVEHVCGKCYKTFRRVQSLKKHLEFCRYDSGYHLRKADMLKNLEKIEKDAVVMEKKDICFCCSESYDTFHLGHINCPDCPKSFKTQTSYERHIFITHSEFSDFPCSICNANLRSEALLALHEEQHKSRGKPYACKICGKDFTRSYHLKRHQKYSSCSSNETDTMSCKVCDRVFYRLDNLRSHLKQHLGTQVVKKPEYMCHTCKNCFYSLSTLNIHIRTHTGEKPFDCDLCDKKFSALVALKKHRRYHTGEKPYSCTVCNQAFAVKEVLNRHMKRHTGERPHKCDECGKSFIQATQLRTHSKTHIRPFPCEQCDEKFKTEKQLERHVKTHSRTKRPVFSCAECKRNFRTPALLKEHMDEGKHSPKQQRSSMRSAVKIMERTDCAICDKNFDSSDTLRRHIRTVHECDPDDIFGVEPHPSKRAKKDIESEEVVPVALNTSAGSLISSQTDGNGVVVREFLVDEGDGAAQTITLENETYTILPLDGAIEGEQLTDEAGVKPEAKKEEAQVSPVVKKEQRKSLAASLAAAIADNLEESCSEDDFSGEILTEEDIKLKENVGKLIDMLVDPPILKKYGWPNAPEETVLCKVIENCGHDLTKGGENYAELDYGSRMREYCKLLFTVVIHNDSIKSLLNNFPIDDVIEYVLGDEDQDEGGLDKDNESHSGDEEAVSVTGETKTNEIREKPEKKEVSAKSEKKEIVGKAVDKDNSEEVVRENKKKPVGEQEKA
binding [1]: binds

B2: 6×His-Thioredoxin-fused CP190 1–126 F15A (domain or fragment, Drosophila melanogaster, UniProt Q24478 1-126, looked up)
chain: MGEVKSVKVDNWGVAFLQKLQNFFNKTDYCDLTLQFRDNSQLKVHRLVLSACTDYFNVLEQTCEIVDDALIMPNEFQADVVVPIVNFMYTGTLEFELKMYGKLLRTAKEMNMTVLLKLLEAHRRTM
notes: CP190, Drosophila melanogaster, residues 1–126 (BTB domain); source: E. coli BL21, co-expressed with the GST fusion, in lysate (pull-down); bacterial expression (cross-linking)
binding [2]: binds | binding [3]: binds

B3: 6×His-Thioredoxin-fused CP190 1–126 K19A (domain or fragment, Drosophila melanogaster, UniProt Q24478 1-126, looked up)
chain: MGEVKSVKVDNWGVFFLQALQNFFNKTDYCDLTLQFRDNSQLKVHRLVLSACTDYFNVLEQTCEIVDDALIMPNEFQADVVVPIVNFMYTGTLEFELKMYGKLLRTAKEMNMTVLLKLLEAHRRTM
notes: as for B2
binding [2]: binds | binding [3]: binds

B4: 6×His-Thioredoxin-fused CP190 1–126 K117S (domain or fragment, Drosophila melanogaster, UniProt Q24478 1-126, looked up)
chain: MGEVKSVKVDNWGVFFLQKLQNFFNKTDYCDLTLQFRDNSQLKVHRLVLSACTDYFNVLEQTCEIVDDALIMPNEFQADVVVPIVNFMYTGTLEFELKMYGKLLRTAKEMNMTVLLSLLEAHRRTM
notes: as for B2
binding [2]: binds | binding [3]: binds

B5: 6×His-Thioredoxin-fused CP190 1–126 V7A (domain or fragment, Drosophila melanogaster, UniProt Q24478 1-126, looked up)
chain: MGEVKSAKVDNWGVFFLQKLQNFFNKTDYCDLTLQFRDNSQLKVHRLVLSACTDYFNVLEQTCEIVDDALIMPNEFQADVVVPIVNFMYTGTLEFELKMYGKLLRTAKEMNMTVLLKLLEAHRRTM
notes: CP190, Drosophila melanogaster, residues 1–126 (BTB domain); also called BTB^V7A; source: E. coli BL21, co-expressed with the GST fusion, in lysate (pull-down); bacterial expression (cross-linking)
binding [2]: binds | binding [3]: binds

B6: 6×His-Thioredoxin-fused CP190 1–126 V114A (domain or fragment, Drosophila melanogaster, UniProt Q24478 1-126, looked up)
chain: MGEVKSVKVDNWGVFFLQKLQNFFNKTDYCDLTLQFRDNSQLKVHRLVLSACTDYFNVLEQTCEIVDDALIMPNEFQADVVVPIVNFMYTGTLEFELKMYGKLLRTAKEMNMTALLKLLEAHRRTM
notes: as for B2
binding [2]: binds | binding [3]: binds

B7: 6×His-Thioredoxin-fused CP190 1–126 V114N (domain or fragment, Drosophila melanogaster, UniProt Q24478 1-126, looked up)
chain: MGEVKSVKVDNWGVFFLQKLQNFFNKTDYCDLTLQFRDNSQLKVHRLVLSACTDYFNVLEQTCEIVDDALIMPNEFQADVVVPIVNFMYTGTLEFELKMYGKLLRTAKEMNMTNLLKLLEAHRRTM
notes: as for B2
binding [2]: binds | binding [3]: binds

B8: 6×His-Thioredoxin-fused CP190 1–126 L118A (domain or fragment, Drosophila melanogaster, UniProt Q24478 1-126, looked up)
chain: MGEVKSVKVDNWGVFFLQKLQNFFNKTDYCDLTLQFRDNSQLKVHRLVLSACTDYFNVLEQTCEIVDDALIMPNEFQADVVVPIVNFMYTGTLEFELKMYGKLLRTAKEMNMTVLLKALEAHRRTM
notes: CP190, Drosophila melanogaster, residues 1–126 (BTB domain); also called BTB^L118A; source: E. coli BL21, co-expressed with the GST fusion, in lysate (pull-down); bacterial expression (cross-linking)
binding [2]: binds | binding [3]: binds

B9: Pita ∆114–164 fused to the GAL4 activation domain (protein, UniProt Q95RQ8)
chain: MAAKLEVREAMLTEKRVCRFCLTEQKLASIFEENPRVKTTANLPLQIMAITAIEVYAGDGMPGHICLECRLLFEHCYRFKQMCKRAETLLRQYPLTGNWPSPLEKPRAPMTMVAGSSPVPRRSHAYELKVDNNQELSMDDVQSMLEDMASELEKEFPDIPQKASPVKPKVLNKSSIRILNKGPAAPVEPRLATPKVKRDDSGNVAIVTEVLDSDLPLDDQDDPTKNAEKVATDVFPCPDCERSFPLQQLLEIHRLNHTRSRSFQCLLCEKSFFSKYDLAKHNFVHTGERPFKCAICSKAFTRKALLHRHERTHTDVPKFICVYCEKPFLSRQEMEKHAERHQKKRPFQCGVCTKSFAFKQGLERHETVHSTNLPFPCQHCERSFSTASKLARHLVAHAGKRAYPCKYCHKSYMLSHHLSRHLRTHTQTSDASFVCSECKVSYSNYNDLLDHALIHATASLKCPMCRKQIEDIDSVESHMDQHKQSERHACEFCDHIFLTQKCLQRHIEDDHVVEMEPYQNEFEDDGEGEGGVDEKEEHLDDFEDMDNVKQEEFVTEYLEDDALYEDHLDDSDESFTPPPPKQRKTNPPKDAQQSVRQTRSRDAQRITQKTGKNEGKPHHKLERNLKNRRSAK
binding [4]: binds | binding [5]: binds | binding [6]: binds | binding [7]: no binding | binding [8]: binds | binding [9]: binds | binding [10]: no binding

B10: Pita ∆220–232 fused to the GAL4 activation domain (protein, UniProt Q95RQ8)
chain: MAAKLEVREAMLTEKRVCRFCLTEQKLASIFEENPRVKTTANLPLQIMAITAIEVYAGDGMPGHICLECRLLFEHCYRFKQMCKRAETLLRQYPLTGNWPSPLEKPRAPMTMVASKKLLVVPAKTAEPSETPKKLLNTMAKSSSQVIIEDVQVLESAMVTPRTVAGSSPVPRRSHAYELKVDNNQELSMDDVQSMLEDMASELEKEFPDIPQKASPVKPGPAAPVEPRLATPKVKRDDSGNVAIVTEVLDSDLPLDDQDDPTKNAEKVATDVFPCPDCERSFPLQQLLEIHRLNHTRSRSFQCLLCEKSFFSKYDLAKHNFVHTGERPFKCAICSKAFTRKALLHRHERTHTDVPKFICVYCEKPFLSRQEMEKHAERHQKKRPFQCGVCTKSFAFKQGLERHETVHSTNLPFPCQHCERSFSTASKLARHLVAHAGKRAYPCKYCHKSYMLSHHLSRHLRTHTQTSDASFVCSECKVSYSNYNDLLDHALIHATASLKCPMCRKQIEDIDSVESHMDQHKQSERHACEFCDHIFLTQKCLQRHIEDDHVVEMEPYQNEFEDDGEGEGGVDEKEEHLDDFEDMDNVKQEEFVTEYLEDDALYEDHLDDSDESFTPPPPKQRKTNPPKDAQQSVRQTRSRDAQRITQKTGKNEGKPHHKLERNLKNRRSAK
binding [1]: no binding
